Test results: US6960572B2, “Indolinones and uses thereof” (Ariad Pharmaceuticals, Inc., priority 2001, dated 2005)

Settings: TSK-Gel HA 1000 HPLC column; linear gradient 10 mM to 500 mM sodium phosphate, 0.15 N NaCl, pH 6.8; corrected using two reference compounds
Procedure: Hydroxyapatite is the principal mineral component of bone. Hydroxyapatite adsorption chromatography is used as an assay to evaluate the bone-targeting potential of both individual bone-targeting moieties (“monomers”) and of pharmaceuticals incorporating bone-targeting groups.
This K value is corrected using two reference compounds to correct from inter-column and inter-system variation to obtain a K′ value.
Reference Compounds: K′ values were determined for known bone targeted compounds, the bisphosphonate, alendronate and tetracycline.

With `NCCCC(O)(P(=O)(O)O)P(=O)(O)O` [Alendronate, alendronate] the “K′ value (corrected hydroxyapatite retention, K=(retention time-void time)/void)” value was 3.7.
